Laboratory results: the supplement of paper PMC10849652
This is one part of the list.

Sequences of proteins named here, by UniProt entry; tags and fusion partners are left off. A change or cut given only in a name is not applied to a line headed by its entry.
UniProt P06730, whole entry, looked up: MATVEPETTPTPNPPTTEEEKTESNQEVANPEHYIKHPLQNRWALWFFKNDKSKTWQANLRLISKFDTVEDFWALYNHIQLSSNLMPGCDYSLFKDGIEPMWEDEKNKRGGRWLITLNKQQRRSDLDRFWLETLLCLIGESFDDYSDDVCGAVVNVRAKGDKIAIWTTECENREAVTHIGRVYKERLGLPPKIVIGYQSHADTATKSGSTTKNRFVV
UniProt P50548: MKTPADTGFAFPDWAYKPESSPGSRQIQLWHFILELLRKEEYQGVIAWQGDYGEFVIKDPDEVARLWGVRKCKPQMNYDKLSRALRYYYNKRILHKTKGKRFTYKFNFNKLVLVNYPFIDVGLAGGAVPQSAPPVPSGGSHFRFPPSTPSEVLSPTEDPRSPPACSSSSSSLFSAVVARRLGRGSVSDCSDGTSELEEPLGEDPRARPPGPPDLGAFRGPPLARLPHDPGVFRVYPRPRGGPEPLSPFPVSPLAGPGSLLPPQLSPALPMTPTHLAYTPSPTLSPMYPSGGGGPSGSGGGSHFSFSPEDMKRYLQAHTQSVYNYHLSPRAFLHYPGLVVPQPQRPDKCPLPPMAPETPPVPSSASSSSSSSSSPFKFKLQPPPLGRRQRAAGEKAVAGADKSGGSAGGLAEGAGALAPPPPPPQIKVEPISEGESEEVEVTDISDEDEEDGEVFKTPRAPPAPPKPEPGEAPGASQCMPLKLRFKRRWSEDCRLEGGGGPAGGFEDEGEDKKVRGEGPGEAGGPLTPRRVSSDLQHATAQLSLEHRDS
UniProt P16422: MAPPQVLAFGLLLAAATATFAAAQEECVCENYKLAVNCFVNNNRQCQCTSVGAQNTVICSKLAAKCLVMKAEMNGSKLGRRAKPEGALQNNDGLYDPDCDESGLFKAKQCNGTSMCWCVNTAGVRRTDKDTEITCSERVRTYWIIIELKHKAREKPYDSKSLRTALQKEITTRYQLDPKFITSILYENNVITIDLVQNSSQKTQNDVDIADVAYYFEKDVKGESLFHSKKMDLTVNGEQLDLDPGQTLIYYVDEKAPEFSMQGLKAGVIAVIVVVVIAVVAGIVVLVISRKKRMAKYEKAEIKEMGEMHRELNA
UniProt O15371, whole entry, looked up: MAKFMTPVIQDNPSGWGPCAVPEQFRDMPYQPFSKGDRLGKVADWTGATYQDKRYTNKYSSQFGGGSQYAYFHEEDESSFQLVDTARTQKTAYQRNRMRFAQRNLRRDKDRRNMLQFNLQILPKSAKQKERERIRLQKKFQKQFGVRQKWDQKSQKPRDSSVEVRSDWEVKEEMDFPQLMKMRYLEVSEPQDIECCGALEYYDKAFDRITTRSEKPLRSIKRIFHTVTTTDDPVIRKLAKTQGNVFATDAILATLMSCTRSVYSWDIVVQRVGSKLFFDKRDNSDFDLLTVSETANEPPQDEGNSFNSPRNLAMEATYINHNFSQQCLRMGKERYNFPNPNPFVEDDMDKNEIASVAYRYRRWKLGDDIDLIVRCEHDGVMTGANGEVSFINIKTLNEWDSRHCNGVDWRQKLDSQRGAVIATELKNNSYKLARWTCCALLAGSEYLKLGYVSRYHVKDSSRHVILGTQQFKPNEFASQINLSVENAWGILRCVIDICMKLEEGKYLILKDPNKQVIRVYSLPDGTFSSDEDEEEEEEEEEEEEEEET
UniProt Q9BV81: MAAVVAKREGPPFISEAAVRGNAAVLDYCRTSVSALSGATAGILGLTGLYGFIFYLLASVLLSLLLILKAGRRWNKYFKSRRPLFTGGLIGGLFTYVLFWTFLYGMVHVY
UniProt Q9Y282: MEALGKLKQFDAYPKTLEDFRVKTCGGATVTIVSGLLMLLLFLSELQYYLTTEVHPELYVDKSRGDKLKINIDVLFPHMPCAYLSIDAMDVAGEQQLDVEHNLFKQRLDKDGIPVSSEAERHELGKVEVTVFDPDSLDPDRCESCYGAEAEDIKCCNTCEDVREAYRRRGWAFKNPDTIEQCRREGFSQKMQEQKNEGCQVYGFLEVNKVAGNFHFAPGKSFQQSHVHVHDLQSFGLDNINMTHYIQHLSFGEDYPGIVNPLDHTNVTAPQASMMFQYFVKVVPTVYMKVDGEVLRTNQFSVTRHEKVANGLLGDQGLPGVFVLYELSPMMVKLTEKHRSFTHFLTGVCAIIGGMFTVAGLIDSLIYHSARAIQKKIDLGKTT
UniProt P60842, whole entry, looked up: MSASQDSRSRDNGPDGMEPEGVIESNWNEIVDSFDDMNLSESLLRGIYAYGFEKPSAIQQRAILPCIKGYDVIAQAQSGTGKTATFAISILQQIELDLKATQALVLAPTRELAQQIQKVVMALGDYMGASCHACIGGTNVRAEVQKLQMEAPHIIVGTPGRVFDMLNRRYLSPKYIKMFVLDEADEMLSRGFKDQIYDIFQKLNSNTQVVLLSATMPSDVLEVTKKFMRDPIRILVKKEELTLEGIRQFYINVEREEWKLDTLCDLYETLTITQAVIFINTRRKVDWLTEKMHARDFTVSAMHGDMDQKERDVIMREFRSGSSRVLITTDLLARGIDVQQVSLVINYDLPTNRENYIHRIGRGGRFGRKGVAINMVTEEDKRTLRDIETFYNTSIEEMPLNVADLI
UniProt P50402: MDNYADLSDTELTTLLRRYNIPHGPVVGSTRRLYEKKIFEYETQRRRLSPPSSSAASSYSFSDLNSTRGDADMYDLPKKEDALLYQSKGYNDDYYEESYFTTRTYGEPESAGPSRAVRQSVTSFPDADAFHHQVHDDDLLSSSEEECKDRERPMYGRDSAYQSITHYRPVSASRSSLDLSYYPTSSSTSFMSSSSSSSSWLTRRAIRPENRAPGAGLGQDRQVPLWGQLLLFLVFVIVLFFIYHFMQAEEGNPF
UniProt O95834: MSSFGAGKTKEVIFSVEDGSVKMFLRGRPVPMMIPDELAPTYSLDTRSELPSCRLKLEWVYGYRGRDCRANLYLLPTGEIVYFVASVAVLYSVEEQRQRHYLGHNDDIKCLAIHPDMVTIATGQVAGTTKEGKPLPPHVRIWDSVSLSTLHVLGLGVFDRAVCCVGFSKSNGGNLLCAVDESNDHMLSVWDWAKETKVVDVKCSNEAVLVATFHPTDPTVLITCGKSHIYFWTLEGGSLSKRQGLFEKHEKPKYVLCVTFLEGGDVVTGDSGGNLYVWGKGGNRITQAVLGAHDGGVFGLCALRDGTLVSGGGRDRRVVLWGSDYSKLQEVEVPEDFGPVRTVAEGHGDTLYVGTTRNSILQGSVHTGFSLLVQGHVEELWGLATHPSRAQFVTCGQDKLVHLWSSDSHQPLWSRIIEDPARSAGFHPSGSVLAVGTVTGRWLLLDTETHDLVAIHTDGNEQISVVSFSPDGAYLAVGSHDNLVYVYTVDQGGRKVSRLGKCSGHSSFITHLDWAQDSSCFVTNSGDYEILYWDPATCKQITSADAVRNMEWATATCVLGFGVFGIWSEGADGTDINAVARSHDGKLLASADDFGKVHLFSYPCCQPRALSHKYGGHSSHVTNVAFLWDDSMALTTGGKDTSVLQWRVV
UniProt Q7L2H7, whole entry, looked up: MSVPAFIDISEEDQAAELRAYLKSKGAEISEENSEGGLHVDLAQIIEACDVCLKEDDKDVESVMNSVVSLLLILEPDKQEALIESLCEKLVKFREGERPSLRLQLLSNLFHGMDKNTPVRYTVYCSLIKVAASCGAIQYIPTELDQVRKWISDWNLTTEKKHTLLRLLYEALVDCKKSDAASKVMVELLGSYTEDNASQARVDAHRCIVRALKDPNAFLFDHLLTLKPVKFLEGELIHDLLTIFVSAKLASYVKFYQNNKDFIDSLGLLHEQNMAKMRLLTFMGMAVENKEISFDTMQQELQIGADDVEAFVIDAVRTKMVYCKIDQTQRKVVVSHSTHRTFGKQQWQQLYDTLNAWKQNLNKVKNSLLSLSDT
UniProt P07992: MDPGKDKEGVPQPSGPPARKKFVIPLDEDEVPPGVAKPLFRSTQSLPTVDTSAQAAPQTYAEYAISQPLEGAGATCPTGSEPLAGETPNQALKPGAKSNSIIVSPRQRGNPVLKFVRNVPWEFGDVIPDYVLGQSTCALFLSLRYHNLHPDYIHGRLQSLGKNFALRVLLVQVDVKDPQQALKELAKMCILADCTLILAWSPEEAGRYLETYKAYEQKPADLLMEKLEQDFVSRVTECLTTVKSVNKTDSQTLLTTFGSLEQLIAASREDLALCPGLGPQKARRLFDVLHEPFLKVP
UniProt P34913, whole entry, looked up: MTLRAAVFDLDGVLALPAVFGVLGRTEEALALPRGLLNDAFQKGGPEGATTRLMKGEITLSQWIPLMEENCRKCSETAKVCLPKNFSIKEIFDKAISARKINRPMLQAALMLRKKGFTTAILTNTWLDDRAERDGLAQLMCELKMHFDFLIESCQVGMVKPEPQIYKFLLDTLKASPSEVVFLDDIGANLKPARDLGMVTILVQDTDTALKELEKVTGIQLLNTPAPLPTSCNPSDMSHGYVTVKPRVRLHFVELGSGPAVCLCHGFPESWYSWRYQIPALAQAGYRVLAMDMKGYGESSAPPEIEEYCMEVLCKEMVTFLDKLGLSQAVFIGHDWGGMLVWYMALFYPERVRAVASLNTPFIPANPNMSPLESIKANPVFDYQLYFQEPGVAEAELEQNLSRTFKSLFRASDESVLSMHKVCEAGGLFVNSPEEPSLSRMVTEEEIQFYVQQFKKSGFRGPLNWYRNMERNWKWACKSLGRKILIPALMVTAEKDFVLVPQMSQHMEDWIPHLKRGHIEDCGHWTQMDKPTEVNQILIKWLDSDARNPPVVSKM
UniProt Q99613, whole entry, looked up: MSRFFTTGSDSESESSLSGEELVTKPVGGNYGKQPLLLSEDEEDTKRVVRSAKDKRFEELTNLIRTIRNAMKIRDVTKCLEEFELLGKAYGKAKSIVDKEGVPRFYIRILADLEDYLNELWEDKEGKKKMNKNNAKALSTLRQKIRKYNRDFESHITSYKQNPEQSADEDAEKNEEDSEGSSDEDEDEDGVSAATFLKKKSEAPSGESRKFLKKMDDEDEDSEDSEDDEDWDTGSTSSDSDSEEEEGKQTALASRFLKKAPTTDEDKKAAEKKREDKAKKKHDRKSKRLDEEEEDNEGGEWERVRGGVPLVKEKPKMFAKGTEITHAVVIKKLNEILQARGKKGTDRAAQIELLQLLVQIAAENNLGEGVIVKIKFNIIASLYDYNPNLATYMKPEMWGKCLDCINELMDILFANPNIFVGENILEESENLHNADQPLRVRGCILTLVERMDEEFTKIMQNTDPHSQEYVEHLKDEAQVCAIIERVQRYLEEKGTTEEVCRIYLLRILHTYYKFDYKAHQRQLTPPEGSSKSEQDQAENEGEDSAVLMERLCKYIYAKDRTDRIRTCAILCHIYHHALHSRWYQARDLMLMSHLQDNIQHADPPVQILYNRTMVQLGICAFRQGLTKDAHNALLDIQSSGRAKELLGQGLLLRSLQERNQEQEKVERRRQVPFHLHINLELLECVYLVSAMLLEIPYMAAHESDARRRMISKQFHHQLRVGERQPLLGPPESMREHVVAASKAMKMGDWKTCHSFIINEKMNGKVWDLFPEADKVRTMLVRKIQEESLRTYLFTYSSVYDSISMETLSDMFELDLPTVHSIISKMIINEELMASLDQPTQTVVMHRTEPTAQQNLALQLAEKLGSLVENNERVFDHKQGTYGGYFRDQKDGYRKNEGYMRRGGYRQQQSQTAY
UniProt Q9NPA8: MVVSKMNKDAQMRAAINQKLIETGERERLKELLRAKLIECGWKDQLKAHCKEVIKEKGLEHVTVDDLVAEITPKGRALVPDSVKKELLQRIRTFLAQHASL
UniProt Q14240, whole entry, looked up: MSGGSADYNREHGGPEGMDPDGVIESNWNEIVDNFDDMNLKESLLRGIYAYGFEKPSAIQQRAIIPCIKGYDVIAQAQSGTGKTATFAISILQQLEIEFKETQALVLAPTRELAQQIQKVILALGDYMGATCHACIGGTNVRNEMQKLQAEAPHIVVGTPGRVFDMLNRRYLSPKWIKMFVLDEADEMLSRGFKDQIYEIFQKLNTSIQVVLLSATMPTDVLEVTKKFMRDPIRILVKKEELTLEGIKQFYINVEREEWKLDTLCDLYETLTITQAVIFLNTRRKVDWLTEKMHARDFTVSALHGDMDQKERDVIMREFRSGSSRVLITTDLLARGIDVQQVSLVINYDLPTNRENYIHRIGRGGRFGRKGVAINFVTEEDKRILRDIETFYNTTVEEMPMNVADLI
UniProt O94919: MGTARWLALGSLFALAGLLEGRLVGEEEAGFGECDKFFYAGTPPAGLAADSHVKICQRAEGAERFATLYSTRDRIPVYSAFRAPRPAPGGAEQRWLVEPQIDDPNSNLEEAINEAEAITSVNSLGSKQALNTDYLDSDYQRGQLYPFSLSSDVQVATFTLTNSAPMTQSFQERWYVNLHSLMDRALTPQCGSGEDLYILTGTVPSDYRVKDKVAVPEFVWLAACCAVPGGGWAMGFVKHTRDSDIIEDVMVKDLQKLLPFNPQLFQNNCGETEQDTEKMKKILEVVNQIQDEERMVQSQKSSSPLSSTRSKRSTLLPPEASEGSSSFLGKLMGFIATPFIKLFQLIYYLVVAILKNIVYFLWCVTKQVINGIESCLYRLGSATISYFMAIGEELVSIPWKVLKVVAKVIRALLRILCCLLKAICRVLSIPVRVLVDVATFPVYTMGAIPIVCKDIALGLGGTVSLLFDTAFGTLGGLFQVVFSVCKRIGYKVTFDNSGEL

Experiments:
Test in all cases: log2 fold change, soluble protein after heating vs DMSO (PISA); higher = thermal stabilisation; K562 lysate, 10 uM; active = over 0.2 and 3.5 SD of the protein, either way, in both replicates (recomputed)
[1] = compound: NCC(=O)Nc1ccc(-n2nc(C(F)(F)F)cc2-c2ccc3c(ccc4ccccc43)c2)cc1
Method in brief: (§1)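 Quantification was by TMTpro 16plex LC-MS/MS with equalised channel sums, applied to the supernatant after 21,000xg for 90 min. Samples were crude K562 extract at 1 mg/mL protein in PBS pH 7.4 with 1 mM MgCl2, treated with 10 μM compound for 30 min, heated for 3 min across 48°C-58°C, pooled and brought to 0.5% NP-40 at 4°C. Values are log-two fold changes in thermal stability relative to solvent controls, from duplicates.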

vorinostat = compound: O=C(CCCCCCC(=O)Nc1ccccc1)NO [vorinostat]
Method in brief: as §1

silmitasertib = compound: O=C(O)c1ccc2c(c1)nc(Nc1cccc(Cl)c1)c1ccncc12 [silmitasertib]
Method in brief: as §1

[2] = compound: O=C1NC(=O)C(c2cnc3ccccn23)=C1c1cn2c3c(cc(F)cc13)CN(C(=O)N1CCCCC1)CC2
Method in brief: as §1

entospletinib = compound: c1cn2cc(-c3ccc4cn[nH]c4c3)nc(Nc3ccc(N4CCOCC4)cc3)c2n1 [entospletinib]
Method in brief: as §1

Row | Target | log2 fold change [1] | log2 fold change (vorinostat) | log2 fold change (silmitasertib) | log2 fold change [2] | log2 fold change (entospletinib)
1 | EIF4E isoform 2 (UniProt P06730) | inactive: -0.001 | inactive: -0.057 | inactive: 0.089 | inactive: -0.006 | inactive: 0.008
2 | EPPK1 (UniProt P58107) | inactive: 0.018 | inactive: -0.08 | inactive: 0 | inactive: 0.02 | inactive: 0.015
3 | ERF (UniProt P50548) | inactive: 0.144 | inactive: 0.036 | inactive: -0.204 | inactive: -0.015 | –
4 | EIF4G3, A0A0U1RQK7 | inactive: -0.013 | inactive: -0.201 | inactive: -0.014 | inactive: -0.045 | inactive: -0.031
5 | EPCAM (UniProt P16422) | inactive: 0.055 | inactive: 0.095 | inactive: 0.006 | inactive: 0.001 | inactive: 0.047
6 | EPB41L1 (UniProt Q9H4G0) | inactive: 0.044 | inactive: 0.028 | inactive: 0.011 | inactive: 0.024 | inactive: -0.043
7 | EIF3D (UniProt O15371) | inactive: 0.009 | inactive: -0.118 | inactive: 0.035 | inactive: 0.026 | inactive: 0.029
8 | EMC6 (UniProt Q9BV81) | inactive: 0.032 | inactive: 0.109 | inactive: -0.083 | inactive: 0.08 | inactive: -0.073
9 | ERGIC3 isoform 3 (UniProt Q9Y282) | inactive: -0.035 | inactive: 0.142 | inactive: 0.055 | inactive: -0.006 | inactive: -0.021
10 | EPHB4 (UniProt P54760) | inactive: 0.143 | inactive: 0.098 | inactive: -0.012 | inactive: -0.127 | inactive: 0.119
11 | EIF4A1 (UniProt P60842) | inactive: 0.04 | inactive: 0.066 | inactive: -0.012 | inactive: 0.015 | inactive: 0.034
12 | EPS15 (UniProt P42566) | inactive: 0.007 | inactive: 0.105 | inactive: -0.013 | inactive: -0.031 | inactive: -0.012
13 | EMD (UniProt P50402) | inactive: 0.075 | inactive: 0.01 | inactive: 0.024 | inactive: -0.023 | inactive: -0.005
14 | EML2 isoform 3 (UniProt O95834) | inactive: -0.045 | inactive: -0.004 | inactive: 0.023 | inactive: -0.036 | inactive: 0.001
15 | EIF4B (UniProt P23588) | inactive: 0.063 | inactive: 0.135 | inactive: 0.004 | inactive: 0.013 | inactive: -0.019
16 | EIF3M (UniProt Q7L2H7) | inactive: -0.006 | inactive: -0.101 | inactive: 0.014 | inactive: 0.027 | inactive: 0.008
17 | ERCC1 (UniProt P07992) | inactive: -0.088 | inactive: -0.103 | inactive: 0.032 | inactive: 0.084 | inactive: -0.134
18 | ELF2 (UniProt Q15723) | inactive: 0.03 | inactive: -0.25 | inactive: 0 | inactive: -0.011 | inactive: -0.03
19 | EPHX2 (UniProt P34913) | inactive: 0.002 | active: 0.243 | inactive: 0.002 | inactive: -0.021 | inactive: -0.058
20 | EIF3C (UniProt Q99613) | inactive: -0.004 | inactive: -0.167 | inactive: 0.019 | inactive: 0.016 | inactive: 0.009
21 | EPRS (UniProt P07814) | inactive: -0.01 | active: -0.365 | inactive: 0.037 | inactive: 0.009 | inactive: 0.021
22 | ENY2 (UniProt Q9NPA8) | inactive: -0.066 | inactive: 0.118 | inactive: -0.032 | inactive: 0.016 | inactive: -0.018
23 | EIF4A2 isoform 2 (UniProt Q14240) | inactive: -0.024 | inactive: 0.028 | inactive: 0.023 | inactive: -0.022 | inactive: 0.003
24 | EIF4ENIF1 isoform 3 (UniProt Q9NRA8) | inactive: 0.032 | inactive: -0.037 | inactive: -0.036 | inactive: 0.011 | inactive: -0.024
25 | ENDOD1 (UniProt O94919) | inactive: -0.046 | inactive: 0.136 | inactive: -0.013 | inactive: -0.031 | inactive: -0.004
26 | EIF3G (UniProt K7ER90) | inactive: 0.024 | inactive: -0.17 | inactive: 0.057 | inactive: -0.086 | inactive: -0.034
